From patent US20140011196

Molecular target: T1, TaqI restriction endonuclease (Thermus aquaticus) (UniProt P14386)
T1 sequence: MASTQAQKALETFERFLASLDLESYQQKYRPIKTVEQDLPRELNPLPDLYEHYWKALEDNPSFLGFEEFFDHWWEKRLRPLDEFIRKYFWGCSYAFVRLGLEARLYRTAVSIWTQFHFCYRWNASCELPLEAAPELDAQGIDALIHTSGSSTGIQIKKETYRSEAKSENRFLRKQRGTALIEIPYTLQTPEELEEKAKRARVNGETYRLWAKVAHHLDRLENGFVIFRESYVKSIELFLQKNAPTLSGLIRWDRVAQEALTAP
Assay: enzyme reaction in vitro
Details: cut T/CGA, 2-nt cohesive ends; 5 mM MgCl2, 65 C; purified recombinant protein

Sequence: AGCACTCTAGAGGATCCCCGGGTACCGAGCTCGAATTCACTGGCCGTCGTTTTAC (double strand) [55 bp TCGA oligonucleotide]
- activity on this sequence: active

Tags and fusion partners may be left off the protein sequences shown.
